The list is a part of this screen's results and no random one: it covers a few groups of compounds. Other doses and runs of a compound may be missing. T/C is the treated group as % of the vehicle group. Where survival is the endpoint, the PubChem record calls one and a half times the control and up active, and a quarter to a half above the control has no call in these data; cut-offs in other NCI protocols can differ. Schedules are NCI's codes, taken here to give the interval after Q, in days (D) or hours (H), and the number of doses after X. Some doses were run more than once; the results are listed from low to high. Some T/C values are marked as having no survivor count here; that says nothing about deaths at the dose.

For 10 molecules, T/C results are on record in PubChem BioAssay AID330 (DTP/NCI, 2004).

The assay has as its system P388 leukemia ip, CD2F1 mice, survival T/C. In words: NCI In Vivo Anticancer Drug Screen. Data for tumor model P388 Leukemia (intraperitoneal) in CD2F1 (CDF1) mice. Particulars: T/C endpoint: median survival time, higher T/C = longer survival.
Setting [1] is: dose: 3.13 mg/kg/injection, schedule: Q01DX009 (ip), vehicle: Klucel (hydroxypropylcellulose) (HPC).
The mark [2] stands for this setting: dose: 100.0 mg/kg/injection, schedule: Q01DX001 (ip), vehicle: saline.
[3] abbreviates: dose: 200.0 mg/kg/injection, schedule: Q01DX001 (ip), vehicle: saline.
Setting [4] is: dose: 400.0 mg/kg/injection, schedule: Q01DX001 (ip), vehicle: saline.

For the molecule `Cc1cc(C)cc(CN(CCCl)CCCl)c1`, the T/C (dose: 1.7 mg/kg/injection, schedule: Q01DX009 (ip), vehicle: saline) was 138 % of control [survivor count not shown]; the T/C (dose: 2.6 mg/kg/injection, schedule: Q01DX009 (ip), vehicle: saline) is 142 % of control [survivor count not shown]; the T/C (dose: 6.25 mg/kg/injection, schedule: Q01DX009 (ip), vehicle: saline) was 150 % of control [survivor count not shown]; the T/C (dose: 6.25 mg/kg/injection, schedule: Q04DX003 (ip), vehicle: saline with Tween-80) was 118 % of control [survivor count not shown]; the T/C (dose: 12.5 mg/kg/injection, schedule: Q01DX009 (ip), vehicle: saline) is 170 % of control [survivor count not shown]; the T/C (dose: 12.5 mg/kg/injection, schedule: Q04DX003 (ip), vehicle: saline with Tween-80) was 127 % of control [survivor count not shown]. Further, the T/C reads like this: (dose: 18.75 mg/kg/injection, schedule: Q04DX003 (ip), vehicle: saline) 154 % of control [survivor count not shown]; (dose: 25.0 mg/kg/injection, schedule: Q04DX003 (ip), vehicle: saline with Tween-80) 127 % of control [survivor count not shown]; (dose: 28.13 mg/kg/injection, schedule: Q04DX003 (ip), vehicle: saline) 150 % of control [survivor count not shown].

`ClCCN1CCCC1CCl` (stereo not given): the T/C (dose: 0.75 mg/kg/injection, schedule: Q01DX009 (ip), vehicle: saline) was 143 % of control [survivor count not shown]; the T/C (dose: 1.5 mg/kg/injection, schedule: Q01DX009 (ip), vehicle: saline) is 153 % of control [survivor count not shown]; the T/C (dose: 3.0 mg/kg/injection, schedule: Q01DX009 (ip), vehicle: saline) is 170 % of control [survivor count not shown]; the T/C (dose: 4.5 mg/kg/injection, schedule: Q01DX009 (ip), vehicle: saline) was 207 % of control [survivor count not shown]; the T/C (dose: 375.0 micrograms/kg/injection, schedule: Q01DX009 (ip), vehicle: saline) was 123 % of control [survivor count not shown]; the T/C (dose: 750.0 micrograms/kg/injection, schedule: Q01DX009 (ip), vehicle: saline) was 128 % of control [survivor count not shown]. Besides, the T/C was 148 % of control [survivor count not shown] (dose: 1500.0 micrograms/kg/injection, schedule: Q01DX009 (ip), vehicle: saline); 176 % of control [survivor count not shown] (dose: 3000.0 micrograms/kg/injection, schedule: Q01DX009 (ip), vehicle: saline); 92 % of control [survivor count not shown] (dose: 6000.0 micrograms/kg/injection, schedule: Q01DX009 (ip), vehicle: saline).

As for `ClCCN(CCCl)C1CCCc2ccccc21` (stereo not given), the T/C reads like this: under setting [1], 152 % of control [survivor count not shown]; (dose: 6.25 mg/kg/injection, schedule: Q01DX009 (ip), vehicle: Klucel (hydroxypropylcellulose) (HPC)) 125 [survivor count not shown] and 178 % of control [survivor count not shown]; (dose: 12.5 mg/kg/injection, schedule: Q01DX009 (ip), vehicle: Klucel (hydroxypropylcellulose) (HPC)) 132 [survivor count not shown] and 160 % of control [survivor count not shown]; (dose: 25.0 mg/kg/injection, schedule: Q01DX009 (ip), vehicle: Klucel (hydroxypropylcellulose) (HPC)) 133 % of control [survivor count not shown].

Turning to `ClCCN(CCCl)C1CCc2ccccc2C1` (stereo not given), the T/C reads like this: (dose: 0.39 mg/kg/injection, schedule: Q01DX009 (ip), vehicle: Klucel (hydroxypropylcellulose) (HPC)) 143 % of control [survivor count not shown]; (dose: 0.78 mg/kg/injection, schedule: Q01DX009 (ip), vehicle: Klucel (hydroxypropylcellulose) (HPC)) 121 [survivor count not shown] and 127 % of control [survivor count not shown]; (dose: 1.56 mg/kg/injection, schedule: Q01DX009 (ip), vehicle: Klucel (hydroxypropylcellulose) (HPC)) 140 [survivor count not shown] and 161 % of control [survivor count not shown]; under setting [1], 160 [survivor count not shown] and 168 % of control [survivor count not shown].

For `O=C1c2ccccc2C(=O)N1CN(CCCl)CCCl`, the T/C was 108 % of control (dose: 12.5 mg/kg/injection, schedule: Q01DX005 (ip), vehicle: Klucel (hydroxypropylcellulose) (HPC)); 117 % of control (dose: 25.0 mg/kg/injection, schedule: Q01DX005 (ip), vehicle: Klucel (hydroxypropylcellulose) (HPC)); 119, 134, 135 % of control (dose: 50.0 mg/kg/injection, schedule: Q01DX005 (ip), vehicle: Klucel (hydroxypropylcellulose) (HPC)); 128 and 163 % of control (dose: 100.0 mg/kg/injection, schedule: Q01DX005 (ip), vehicle: Klucel (hydroxypropylcellulose) (HPC)); 182 and 216 % of control (dose: 200.0 mg/kg/injection, schedule: Q01DX005 (ip), vehicle: Klucel (hydroxypropylcellulose) (HPC)); 94 % of control (dose: 400.0 mg/kg/injection, schedule: Q01DX005 (ip), vehicle: Klucel (hydroxypropylcellulose) (HPC)).

Consider `CC(C)(O)C#CCN(CCCl)CCCl`, for which the T/C is, setting by setting: (dose: 0.75 mg/kg/injection, schedule: Q01DX009 (ip), vehicle: saline sonified) 181 % of control [survivor count not shown]; (dose: 0.75 mg/kg/injection, schedule: Q04DX003 (ip), vehicle: saline) 117 % of control [survivor count not shown]; (dose: 1.5 mg/kg/injection, schedule: Q01DX009 (ip), vehicle: saline sonified) 118 % of control [survivor count not shown]; (dose: 1.5 mg/kg/injection, schedule: Q04DX003 (ip), vehicle: saline) 121 % of control [survivor count not shown]; (dose: 2.0 mg/kg/injection, schedule: Q04DX003 (ip), vehicle: saline with Tween-80) 145 % of control [survivor count not shown]; (dose: 3.0 mg/kg/injection, schedule: Q04DX003 (ip), vehicle: saline with Tween-80) 140 % of control [survivor count not shown]. The T/C (dose: 3.0 mg/kg/injection, schedule: Q04DX003 (ip), vehicle: saline) was 156 % of control [survivor count not shown] and the T/C (dose: 4.5 mg/kg/injection, schedule: Q04DX003 (ip), vehicle: saline with Tween-80) is 168 % of control [survivor count not shown].

On to `ClCCN(CCCl)C12CC3CC(CC(C3)C1)C2`, for which the T/C is 117 % of control [survivor count not shown] (dose: 0.33 mg/kg/injection, schedule: Q01DX009 (ip), vehicle: Klucel (hydroxypropylcellulose) (HPC)); 131 % of control [survivor count not shown] (dose: 0.66 mg/kg/injection, schedule: Q01DX009 (ip), vehicle: Klucel (hydroxypropylcellulose) (HPC)); 158 % of control [survivor count not shown] (dose: 1.0 mg/kg/injection, schedule: Q01DX009 (ip), vehicle: Klucel (hydroxypropylcellulose) (HPC)); 174 % of control [survivor count not shown] (dose: 1.5 mg/kg/injection, schedule: Q01DX009 (ip), vehicle: Klucel (hydroxypropylcellulose) (HPC)); 91 % of control [survivor count not shown] (dose: 2.0 mg/kg/injection, schedule: Q01DX009 (ip), vehicle: Klucel (hydroxypropylcellulose) (HPC)).

`CC(COC(=O)C(O)(c1ccccc1)c1ccccc1)N1CCCCCCCC1` (stereo not given): the T/C runs as follows: (dose: 50.0 mg/kg/injection, schedule: Q04DX003 (ip), vehicle: saline with Tween-80) 107 % of control [survivor count not shown]; (dose: 100.0 mg/kg/injection, schedule: Q04DX003 (ip), vehicle: saline with Tween-80) 108 % of control [survivor count not shown]; (dose: 200.0 mg/kg/injection, schedule: Q04DX003 (ip), vehicle: saline with Tween-80) 110 % of control [survivor count not shown]; (dose: 400.0 mg/kg/injection, schedule: Q04DX003 (ip), vehicle: saline with Tween-80) 124 % of control [survivor count not shown].

`C=CCN1CCC(COC(=O)C(O)(c2ccccc2)c2ccccc2)C1` (stereo not given): the T/C was 101 % of control under setting [2], 95 % of control under setting [3] and 95 % of control under setting [4].

`C=C(C)C(O)(C(=O)OC1CN2CCC1CC2)C1CCCCC1` (stereo not given): the T/C by setting is: under setting [2], 95 % of control [survivor count not shown]; under setting [3], 100 % of control [survivor count not shown]; under setting [4], 92 % of control [survivor count not shown].
